Experimental data: the supplement of paper PMC10849652
This is one part of the list.

Chains of the proteins cited; added tags and fusions are not shown. Lines headed by an entry give the natural chain unless they say otherwise; changes in a name come on top.
UniProt Q9Y2B2: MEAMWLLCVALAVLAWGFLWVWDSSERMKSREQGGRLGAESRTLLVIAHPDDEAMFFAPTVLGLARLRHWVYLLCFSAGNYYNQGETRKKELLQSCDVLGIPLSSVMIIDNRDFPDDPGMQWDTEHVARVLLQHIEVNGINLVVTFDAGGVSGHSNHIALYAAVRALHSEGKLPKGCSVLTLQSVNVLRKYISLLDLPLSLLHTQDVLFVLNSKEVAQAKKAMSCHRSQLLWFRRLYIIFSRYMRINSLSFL
UniProt Q86YI8: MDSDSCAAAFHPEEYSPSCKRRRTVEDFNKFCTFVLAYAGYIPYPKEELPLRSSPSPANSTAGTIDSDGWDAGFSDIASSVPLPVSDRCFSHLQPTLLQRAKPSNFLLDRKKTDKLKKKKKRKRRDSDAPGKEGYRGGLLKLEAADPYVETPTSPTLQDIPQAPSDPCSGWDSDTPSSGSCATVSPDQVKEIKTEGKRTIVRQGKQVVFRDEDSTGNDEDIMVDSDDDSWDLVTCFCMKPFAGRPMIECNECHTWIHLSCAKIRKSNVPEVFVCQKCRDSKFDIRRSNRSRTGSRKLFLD
UniProt P07205: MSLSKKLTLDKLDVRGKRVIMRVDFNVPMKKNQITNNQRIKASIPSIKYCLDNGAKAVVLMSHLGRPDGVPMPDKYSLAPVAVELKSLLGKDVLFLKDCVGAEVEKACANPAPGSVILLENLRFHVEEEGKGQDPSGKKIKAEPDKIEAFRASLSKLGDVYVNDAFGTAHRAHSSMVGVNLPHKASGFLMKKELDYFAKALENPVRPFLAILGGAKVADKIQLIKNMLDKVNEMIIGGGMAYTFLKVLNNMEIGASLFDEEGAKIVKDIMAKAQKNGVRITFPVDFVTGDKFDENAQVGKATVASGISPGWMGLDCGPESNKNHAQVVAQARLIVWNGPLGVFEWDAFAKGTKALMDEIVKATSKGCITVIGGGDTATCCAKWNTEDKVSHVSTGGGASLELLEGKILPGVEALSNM
PIGBOS1, A0A0B4J2F0, UniProt A0A0B4J2F0, whole entry, looked up: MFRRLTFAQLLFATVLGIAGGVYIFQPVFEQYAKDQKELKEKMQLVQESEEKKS
UniProt P78337, whole entry, looked up: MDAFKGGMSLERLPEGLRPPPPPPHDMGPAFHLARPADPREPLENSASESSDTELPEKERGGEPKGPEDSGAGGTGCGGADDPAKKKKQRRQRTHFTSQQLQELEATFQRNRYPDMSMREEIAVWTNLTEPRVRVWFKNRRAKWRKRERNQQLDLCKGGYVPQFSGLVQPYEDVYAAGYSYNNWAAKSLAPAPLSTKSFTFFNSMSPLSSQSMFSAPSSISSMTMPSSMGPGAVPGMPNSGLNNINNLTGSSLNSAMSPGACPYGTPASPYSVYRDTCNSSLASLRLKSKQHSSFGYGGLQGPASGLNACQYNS
UniProt Q15149: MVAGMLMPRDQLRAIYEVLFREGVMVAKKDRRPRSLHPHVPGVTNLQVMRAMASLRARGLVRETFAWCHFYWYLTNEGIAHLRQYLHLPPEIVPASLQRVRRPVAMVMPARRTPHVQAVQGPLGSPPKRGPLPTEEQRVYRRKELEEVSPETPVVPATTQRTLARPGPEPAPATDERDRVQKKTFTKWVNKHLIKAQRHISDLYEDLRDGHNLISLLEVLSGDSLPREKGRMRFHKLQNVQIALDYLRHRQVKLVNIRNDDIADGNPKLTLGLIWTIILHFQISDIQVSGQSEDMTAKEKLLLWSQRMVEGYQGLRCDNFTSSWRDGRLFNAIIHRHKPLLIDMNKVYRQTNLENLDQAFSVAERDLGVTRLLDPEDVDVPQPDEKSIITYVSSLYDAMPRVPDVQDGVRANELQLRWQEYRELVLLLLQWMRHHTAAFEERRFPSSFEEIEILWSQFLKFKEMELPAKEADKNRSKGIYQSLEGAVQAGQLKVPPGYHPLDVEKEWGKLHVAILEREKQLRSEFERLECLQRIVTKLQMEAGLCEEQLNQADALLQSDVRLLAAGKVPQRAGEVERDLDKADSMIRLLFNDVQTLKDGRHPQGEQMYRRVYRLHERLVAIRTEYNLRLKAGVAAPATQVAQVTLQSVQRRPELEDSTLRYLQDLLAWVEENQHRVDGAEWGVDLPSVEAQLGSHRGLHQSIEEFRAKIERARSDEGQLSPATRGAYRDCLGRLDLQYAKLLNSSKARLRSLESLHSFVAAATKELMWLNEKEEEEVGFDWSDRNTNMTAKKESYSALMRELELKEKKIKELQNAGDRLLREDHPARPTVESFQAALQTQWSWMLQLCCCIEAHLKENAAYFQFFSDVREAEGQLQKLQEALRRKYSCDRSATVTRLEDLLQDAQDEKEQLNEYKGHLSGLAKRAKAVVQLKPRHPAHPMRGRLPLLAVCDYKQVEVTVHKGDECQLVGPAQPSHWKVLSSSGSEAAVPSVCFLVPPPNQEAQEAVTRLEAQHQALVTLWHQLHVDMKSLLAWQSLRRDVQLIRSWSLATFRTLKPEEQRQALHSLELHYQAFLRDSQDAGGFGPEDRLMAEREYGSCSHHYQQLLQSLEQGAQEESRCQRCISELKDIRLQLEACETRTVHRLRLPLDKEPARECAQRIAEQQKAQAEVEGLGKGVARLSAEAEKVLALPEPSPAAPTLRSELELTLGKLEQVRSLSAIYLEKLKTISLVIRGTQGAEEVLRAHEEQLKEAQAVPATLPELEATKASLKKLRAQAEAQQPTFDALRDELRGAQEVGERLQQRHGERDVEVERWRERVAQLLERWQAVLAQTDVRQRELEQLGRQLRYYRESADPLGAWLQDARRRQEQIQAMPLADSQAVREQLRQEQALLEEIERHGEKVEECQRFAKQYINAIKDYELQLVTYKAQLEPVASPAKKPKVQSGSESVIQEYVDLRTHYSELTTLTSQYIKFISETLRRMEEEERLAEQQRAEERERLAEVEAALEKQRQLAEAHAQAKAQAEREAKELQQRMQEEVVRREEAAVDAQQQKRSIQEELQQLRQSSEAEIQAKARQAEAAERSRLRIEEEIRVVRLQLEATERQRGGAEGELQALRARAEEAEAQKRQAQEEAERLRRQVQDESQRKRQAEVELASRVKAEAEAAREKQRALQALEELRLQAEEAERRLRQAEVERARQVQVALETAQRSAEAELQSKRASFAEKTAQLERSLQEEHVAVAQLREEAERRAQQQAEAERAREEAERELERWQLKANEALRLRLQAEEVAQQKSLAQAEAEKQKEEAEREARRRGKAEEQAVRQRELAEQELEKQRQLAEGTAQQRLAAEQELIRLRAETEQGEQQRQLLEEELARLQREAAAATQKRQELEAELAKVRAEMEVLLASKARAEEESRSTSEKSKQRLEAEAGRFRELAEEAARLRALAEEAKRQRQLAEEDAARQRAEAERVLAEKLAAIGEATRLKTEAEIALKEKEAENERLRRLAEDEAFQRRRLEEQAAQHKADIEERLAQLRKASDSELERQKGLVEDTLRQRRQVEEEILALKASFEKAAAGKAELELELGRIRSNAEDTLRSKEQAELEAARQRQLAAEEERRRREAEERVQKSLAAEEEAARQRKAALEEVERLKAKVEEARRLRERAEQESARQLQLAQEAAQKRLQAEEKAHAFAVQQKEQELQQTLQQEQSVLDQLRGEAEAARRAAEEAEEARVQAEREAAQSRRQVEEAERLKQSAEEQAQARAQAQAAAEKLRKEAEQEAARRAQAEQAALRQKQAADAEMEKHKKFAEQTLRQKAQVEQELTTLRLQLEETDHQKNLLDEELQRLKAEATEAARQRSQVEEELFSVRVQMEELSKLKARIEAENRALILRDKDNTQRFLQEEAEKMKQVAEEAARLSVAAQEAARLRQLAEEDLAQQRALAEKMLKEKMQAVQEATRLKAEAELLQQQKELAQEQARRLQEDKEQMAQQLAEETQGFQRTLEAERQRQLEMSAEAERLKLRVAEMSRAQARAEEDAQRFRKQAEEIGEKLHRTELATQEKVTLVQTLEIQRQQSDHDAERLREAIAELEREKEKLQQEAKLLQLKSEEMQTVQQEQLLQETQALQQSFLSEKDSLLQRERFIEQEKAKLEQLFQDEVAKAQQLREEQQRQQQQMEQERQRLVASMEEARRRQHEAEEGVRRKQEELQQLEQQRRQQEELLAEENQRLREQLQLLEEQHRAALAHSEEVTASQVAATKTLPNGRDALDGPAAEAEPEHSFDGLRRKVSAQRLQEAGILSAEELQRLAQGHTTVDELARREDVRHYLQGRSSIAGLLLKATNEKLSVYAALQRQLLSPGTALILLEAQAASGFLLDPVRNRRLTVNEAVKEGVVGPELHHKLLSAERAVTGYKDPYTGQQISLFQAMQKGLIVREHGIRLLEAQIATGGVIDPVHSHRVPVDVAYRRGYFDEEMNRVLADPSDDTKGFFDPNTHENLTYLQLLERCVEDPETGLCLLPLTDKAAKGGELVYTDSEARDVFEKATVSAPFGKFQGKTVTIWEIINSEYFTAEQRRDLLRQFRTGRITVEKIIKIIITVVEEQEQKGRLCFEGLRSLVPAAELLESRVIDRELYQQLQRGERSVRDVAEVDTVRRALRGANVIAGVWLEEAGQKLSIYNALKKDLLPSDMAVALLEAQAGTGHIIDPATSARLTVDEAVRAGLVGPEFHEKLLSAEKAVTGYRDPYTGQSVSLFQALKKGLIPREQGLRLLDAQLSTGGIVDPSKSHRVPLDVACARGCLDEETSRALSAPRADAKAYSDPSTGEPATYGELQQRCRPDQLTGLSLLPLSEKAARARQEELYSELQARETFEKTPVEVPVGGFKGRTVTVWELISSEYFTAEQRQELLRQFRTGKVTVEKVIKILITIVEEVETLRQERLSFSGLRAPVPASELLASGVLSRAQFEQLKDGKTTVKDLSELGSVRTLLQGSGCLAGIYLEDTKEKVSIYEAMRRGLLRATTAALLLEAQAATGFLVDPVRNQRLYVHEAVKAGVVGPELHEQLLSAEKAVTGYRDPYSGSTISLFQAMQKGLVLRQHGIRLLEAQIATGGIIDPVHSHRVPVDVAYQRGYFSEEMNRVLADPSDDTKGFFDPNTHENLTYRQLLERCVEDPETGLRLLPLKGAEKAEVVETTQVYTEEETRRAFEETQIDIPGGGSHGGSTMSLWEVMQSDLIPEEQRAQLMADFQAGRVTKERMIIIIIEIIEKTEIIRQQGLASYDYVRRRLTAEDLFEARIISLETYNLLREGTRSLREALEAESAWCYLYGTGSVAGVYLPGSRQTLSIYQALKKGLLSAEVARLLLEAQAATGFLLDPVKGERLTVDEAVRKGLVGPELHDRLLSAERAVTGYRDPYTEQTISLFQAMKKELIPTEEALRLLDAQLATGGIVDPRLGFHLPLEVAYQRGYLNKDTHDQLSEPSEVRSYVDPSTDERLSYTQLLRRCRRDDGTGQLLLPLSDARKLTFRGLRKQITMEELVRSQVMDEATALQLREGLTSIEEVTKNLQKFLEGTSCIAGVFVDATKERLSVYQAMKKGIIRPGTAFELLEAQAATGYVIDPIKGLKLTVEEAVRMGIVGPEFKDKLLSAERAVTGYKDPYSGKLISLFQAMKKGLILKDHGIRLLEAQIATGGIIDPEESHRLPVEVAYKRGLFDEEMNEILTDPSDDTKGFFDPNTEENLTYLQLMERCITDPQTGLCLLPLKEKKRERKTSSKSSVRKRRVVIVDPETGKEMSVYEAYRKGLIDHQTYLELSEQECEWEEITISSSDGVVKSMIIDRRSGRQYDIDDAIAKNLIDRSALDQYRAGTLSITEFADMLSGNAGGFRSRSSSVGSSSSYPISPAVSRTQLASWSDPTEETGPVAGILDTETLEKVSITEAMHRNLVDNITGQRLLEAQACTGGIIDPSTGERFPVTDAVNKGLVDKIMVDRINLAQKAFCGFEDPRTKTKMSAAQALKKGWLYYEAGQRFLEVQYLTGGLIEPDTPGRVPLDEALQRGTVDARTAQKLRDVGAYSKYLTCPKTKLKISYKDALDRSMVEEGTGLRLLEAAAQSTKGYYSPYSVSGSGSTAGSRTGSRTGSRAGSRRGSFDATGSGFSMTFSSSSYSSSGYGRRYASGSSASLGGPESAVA
UniProt Q9C010: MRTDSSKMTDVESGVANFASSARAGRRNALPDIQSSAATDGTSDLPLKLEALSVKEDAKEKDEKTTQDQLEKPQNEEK

Legend:
Assay in all cases: log2 fold change, soluble protein after heating vs DMSO (PISA); higher = thermal stabilisation; K562 lysate, 10 uM; active = over 0.2 and 3.5 SD of the protein, either way, in both replicates (recomputed)
[1] = compound: Cc1cn(-c2cc(NC(=O)c3ccc(C)c(Nc4nccc(-c5cccnc5)n4)c3)cc(C(F)(F)F)c2)cn1 [nilotinib]
Outline: (§1)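 A 30 min treatment with 10 μM compound was applied to crude K562 extract at 1 mg/mL protein in PBS pH 7.4 with 1 mM MgCl2. Heating for 3 min spanned 48°C-58°C, after which aliquots were pooled, adjusted to 0.5% NP-40 at 4°C and spun at 21,000xg for 90 min. TMTpro 16plex LC-MS/MS of the supernatant, with channel sums equalised, gave values recorded as log-two fold change in thermal stability against solvent controls, from duplicates.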

[2] = compound: Cc1nc(Nc2n[nH]c3c2CN(C(=O)N[C@H](CN(C)C)c2ccccc2)C3(C)C)c2sccc2n1
Outline: as §1

[3] = compound: Cc1nc(Nc2ncc(C(=O)Nc3c(C)cccc3Cl)s2)cc(N2CCN(CCO)CC2)n1 [dasatinib]
Outline: as §1

[4] = compound: Cc1ncc(-c2ccnc(Nc3ccc(S(C)(=O)=O)cc3)n2)n1C(C)C
Outline: as §1

[5] = compound: Cn1cc(-c2ccc3c(c2)CCN3C(=O)Cc2cccc(C(F)(F)F)c2)c2c(N)ncnc21
Outline: as §1

[6] = compound: Cn1cc(CNCC2CCN(c3ncc(C(=O)NO)cn3)CC2)c2ccccc21 [quisinostat]
Outline: as §1

[7] = compound: Cn1cncc1[C@@](N)(c1ccc(Cl)cc1)c1ccc2c(c1)c(-c1cccc(Cl)c1)cc(=O)n2C [tipifarnib]
Outline: as §1

[8] = compound: NC(=O)Nc1cc(-c2cccc(F)c2)sc1C(=O)N[C@H]1CCCNC1
Outline: as §1

[9] = compound: NC(=O)c1cnc(N[C@@H]2CCCC[C@@H]2N)nc1Nc1cccc(-n2nccn2)c1
Outline: as §1

[10] = compound: O=C1NC(=O)C(c2cnc3ccccn23)=C1c1cn2c3c(cc(F)cc13)CN(C(=O)N1CCCCC1)CC2
Outline: as §1

[11] = compound: c1cn2cc(-c3ccc4cn[nH]c4c3)nc(Nc3ccc(N4CCOCC4)cc3)c2n1 [entospletinib]
Outline: as §1

[12] = compound: NC1(c2ccc(-c3nc4ccn5c(=O)[nH]nc5c4cc3-c3ccccc3)cc2)CCC1
Outline: as §1

[13] = compound: O=C(CCCCCCC(=O)Nc1ccccc1)NO [vorinostat]
Outline: as §1

[14] = compound: O=C(O)c1ccc2c(c1)nc(Nc1cccc(Cl)c1)c1ccncc12 [silmitasertib]
Outline: as §1

[15] = compound: NCC(=O)Nc1ccc(-n2nc(C(F)(F)F)cc2-c2ccc3c(ccc4ccccc43)c2)cc1
Outline: as §1

Measured: log2 fold change

PIGX isoform 2 (UniProt Q8TBF5)
inactive: [1] 0.025 | [2] 0.053 | [3] -0.005 | [4] 0.179 | [5] 0.113 | [6] 0.031 | [7] -0.004 | [8] 0 | [9] 0.067 | [10] 0.068 | [11] -0.051

PIEZO2 isoform 4 (UniProt Q9H5I5)
inactive: [1] 0.048 | [2] -0.024 | [4] 0.008 | [6] -0.091 | [7] 0.056 | [8] 0.092 | [9] 0.03 | [12] -0.009 | [13] 0.102 | [14] 0.035 | [10] 0.031 | [11] 0.029

PIK3CG (UniProt P48736)
inactive: [1] 0.004 | [2] -0.022 | [4] 0.079 | [5] 0.097 | [6] -0.139 | [7] 0.003 | [8] 0.013 | [12] -0.017 | [15] -0.111 | [13] -0.037 | [14] 0.04 | [10] -0.027 | [11] -0.073

PKMYT1 (UniProt Q99640)
inactive: [1] 0.045 | [2] 0.101 | [3] 0.34 | [4] 0.028 | [5] -0.086 | [6] 0.158 | [7] -0.052 | [8] -0.1 | [15] -0.031 | [10] -0.062 | [11] 0.001

PIK3R3 (UniProt Q92569)
inactive: [1] -0.09 | [2] 0.076 | [4] -0.159 | [7] 0.034

PIAS4 (UniProt Q8N2W9)
inactive: [1] -0.032 | [2] 0.096 | [3] 0.069 | [4] -0.015 | [5] -0.071 | [6] -0.06 | [7] -0.087 | [8] -0.018 | [12] 0.14 | [15] 0.043 | [13] -0.062 | [14] 0.042 | [10] -0.062 | [11] -0.031

PLCH1 (UniProt Q4KWH8)
inactive: [3] -0.001 | [5] 0.02 | [6] 0.054 | [8] -0.052 | [9] 0.034 | [12] -0.001 | [15] -0.05 | [13] 0.043 | [14] 0.026 | [10] -0.065 | [11] 0.055

PHF14 (UniProt O94880)
inactive: [1] -0.127 | [2] -0.203 | [3] -0.1 | [4] 0.082 | [5] 0.085 | [7] 0.073 | [9] -0.077 | [15] -0.062 | [11] 0.039

PIDD1 (UniProt Q9HB75)
inactive: [3] -0.094 | [5] 0.218

PIGL (UniProt Q9Y2B2)
inactive: [3] -0.067 | [5] -0.075 | [6] 0.032 | [8] -0.076 | [9] -0.037 | [12] -0.109 | [13] 0.09 | [14] -0.068 | [10] 0.071 | [11] -0.426

PHF13 (UniProt Q86YI8)
inactive: [6] -0.399 | [8] -0.009 | [9] 0.052 | [10] 0.016

PIP5K1B isoform 2 (UniProt O14986)
inactive: [6] -0.192 | [8] -0.049 | [10] 0.015

PGK2 (UniProt P07205)
inactive: [9] 0.07 | [15] -0.112 | [11] -0.066

PIGB (UniProt Q92521)
inactive: [6] -0.041 | [8] 0.011 | [15] -0.159 | [10] 0 | [11] -0.26

PGM1 isoform 2 (UniProt P36871)
inactive: [3] 0.087 | [5] -0.152 | [12] 0.293 | [13] 0.488 | [14] -0.093 | [11] -0.097

PIGQ (UniProt Q9BRB3)
inactive: [6] -0.012 | [8] 0.011 | [9] 0.011 | [15] -0.101 | [10] 0.014 | [11] -0.098

PICALM (UniProt H0YCY1)
inactive: [12] 0.013 | [13] 0.202 | [14] -0.07

PHF20 (UniProt Q9BVI0)
inactive: [6] 0.353 | [8] 0.02 | [10] 0.018

PIK3AP1 (UniProt Q6ZUJ8)
inactive: [3] -0.045 | [5] 0.177 | [6] -0.029 | [8] 0.124 | [10] 0 | [11] 0.001

Copied from the entries so far (11 entries):
PIAS4 (UniProt Q8N2W9)
inactive: [1] -0.032 | [2] 0.096 | [3] 0.069 | [4] -0.015 | [5] -0.071 | [6] -0.06 | [7] -0.087 | [8] -0.018 | [12] 0.14 | [15] 0.043 | [13] -0.062 | [14] 0.042 | [10] -0.062 | [11] -0.031

PLCH1 (UniProt Q4KWH8)
inactive: [3] -0.001 | [5] 0.02 | [6] 0.054 | [8] -0.052 | [9] 0.034 | [12] -0.001 | [15] -0.05 | [13] 0.043 | [14] 0.026 | [10] -0.065 | [11] 0.055

PHF14 (UniProt O94880)
inactive: [1] -0.127 | [2] -0.203 | [3] -0.1 | [4] 0.082 | [5] 0.085 | [7] 0.073 | [9] -0.077 | [15] -0.062 | [11] 0.039

PIDD1 (UniProt Q9HB75)
inactive: [3] -0.094 | [5] 0.218

PIGL (UniProt Q9Y2B2)
inactive: [3] -0.067 | [5] -0.075 | [6] 0.032 | [8] -0.076 | [9] -0.037 | [12] -0.109 | [13] 0.09 | [14] -0.068 | [10] 0.071 | [11] -0.426

PHF13 (UniProt Q86YI8)
inactive: [6] -0.399 | [8] -0.009 | [9] 0.052 | [10] 0.016

PIP5K1B isoform 2 (UniProt O14986)
inactive: [6] -0.192 | [8] -0.049 | [10] 0.015

PGK2 (UniProt P07205)
inactive: [9] 0.07 | [15] -0.112 | [11] -0.066

PIGB (UniProt Q92521)
inactive: [6] -0.041 | [8] 0.011 | [15] -0.159 | [10] 0 | [11] -0.26

PGM1 isoform 2 (UniProt P36871)
inactive: [3] 0.087 | [5] -0.152 | [12] 0.293 | [13] 0.488 | [14] -0.093 | [11] -0.097

PIGQ (UniProt Q9BRB3)
inactive: [6] -0.012 | [8] 0.011 | [9] 0.011 | [15] -0.101 | [10] 0.014 | [11] -0.098

Next records

PLCB4 isoform 4 (UniProt Q15147)
inactive: [9] 0.125 | [12] -0.192 | [13] 0.014 | [14] -0.13 | [11] 0.119

PIGBOS1, A0A0B4J2F0
inactive: [6] 0.137 | [8] -0.121 | [10] 0.015

PITX1 (UniProt P78337)
inactive: [3] 0.058 | [5] -0.254 | [6] -0.105 | [8] 0.107 | [15] 0.225 | [10] -0.105 | [11] 0.046

PIGN (UniProt O95427)
inactive: [3] -0.153 | [5] -0.019 | [9] 0.227 | [12] 0.213 | [15] 0.022 | [13] -0.017 | [14] 0.136 | [11] -0.126

PGM3 (UniProt D6RCQ8)
inactive: [9] -0.161

PLEC isoform 3 (UniProt Q15149)
inactive: [6] -0.048 | [8] 0.113 | [15] -0.158 | [10] -0.03 | [11] 0.104

PLAUR (UniProt Q03405)
inactive: [3] 0.149 | [5] -0.509 | [12] 0.155 | [13] -0.063 | [14] -0.157 | [11] -0.051

PKIB isoform 2 (UniProt Q9C010)
inactive: [9] 0.023

PKLR (UniProt F8W6W2)
inactive: [15] 0.098

PHLDB3 (UniProt Q6NSJ2)
inactive: [6] -0.233 | [8] 0.115 | [12] -0.155 | [13] 0.135 | [14] 0.041 | [10] 0.216

PIGA (UniProt P37287)
inactive: [3] -0.03 | [5] -0.018 | [6] -0.073 | [8] -0.004 | [9] -0.045 | [12] -0.096 | [15] 0.034 | [13] 0.126 | [14] -0.076 | [10] 0 | [11] -0.127

PIGM (UniProt Q9H3S5)
inactive: [6] -0.021 | [8] 0.057 | [9] -0.05 | [12] -0.2 | [15] -0.024 | [13] 0.039 | [14] 0.009 | [10] 0.025 | [11] 0.044

PHF19 isoform 2 (UniProt Q5T6S3)
inactive: [15] 0.063 | [11] 0.021

PHLDA2 (UniProt Q53GA4)
inactive: [3] -0.093 | [5] -0.302 | [6] -0.133 | [8] 0.079 | [12] -0.138 | [15] 0.027 | [13] -0.199 | [14] 0.036 | [10] -0.166

PLEKHG2 (UniProt Q9H7P9)
inactive: [3] 0.094 | [5] 0.176 | [12] 0.034 | [13] -0.14 | [14] 0.039 | [11] 0.178

PHGDH, A0A286YFE1
inactive: [3] 0.086 | [5] 0.258 | [9] -0.29

PHOSPHO2 (UniProt C9JD35)
inactive: [6] 0.073 | [8] -0.102 | [10] 0.004 | [11] 0.155

PIGH (UniProt Q14442)
inactive: [6] 0.159 | [8] -0.172 | [9] 0.054 | [12] -0.105 | [15] -0.065 | [13] 0.169 | [14] -0.007 | [10] -0.132

PHYKPL (UniProt Q8IUZ5)
inactive: [3] -0.184 | [5] -0.061 | [6] 0.05 | [8] 0.123 | [9] -0.031 | [12] 0.04 | [15] -0.071 | [13] 0.009 | [14] 0.018 | [10] -0.008 | [11] -0.015

PKP4 (UniProt Q99569)
inactive: [3] -0.138 | [5] -0.099 | [11] -0.102

PLEK (UniProt P08567)
inactive: [6] 0.072 | [8] -0.025 | [12] -0.065 | [13] 0 | [14] -0.066 | [10] 0.008 | [11] 0

PKM (UniProt H3BTN5)
inactive: [6] 0.048 | [8] -0.05 | [9] 0.027 | [12] 0.077 | [15] 0.003 | [13] 0.252 | [14] 0.108 | [10] 0.081 | [11] 0.007

PIMREG (UniProt Q9BSJ6)
inactive: [6] -0.019 | [8] -0.018 | [12] 0.198 | [13] -0.187 | [14] 0.091 | [10] -0.14
